Test results from PMC5225548.
No constants are given. Whether binding was seen depends on the method and setting. In cells and extracts the contact can be indirect. Some binding calls cover weakened binding; strength is not graded here.

Chains of the proteins cited; added tags and fusions are not shown. Lines headed by an entry give the natural chain unless they say otherwise; changes in a name come on top.
UniProt Q15365: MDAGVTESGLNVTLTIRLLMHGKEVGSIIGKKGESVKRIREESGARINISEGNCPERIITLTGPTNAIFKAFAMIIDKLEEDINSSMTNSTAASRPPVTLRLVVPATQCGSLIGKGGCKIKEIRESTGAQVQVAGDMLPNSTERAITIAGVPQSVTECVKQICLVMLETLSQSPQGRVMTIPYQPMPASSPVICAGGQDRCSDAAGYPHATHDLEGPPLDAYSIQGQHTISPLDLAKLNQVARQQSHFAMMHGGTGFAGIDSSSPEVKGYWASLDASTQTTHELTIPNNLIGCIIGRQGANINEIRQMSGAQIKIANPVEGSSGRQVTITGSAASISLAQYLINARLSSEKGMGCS
UniProt P60335: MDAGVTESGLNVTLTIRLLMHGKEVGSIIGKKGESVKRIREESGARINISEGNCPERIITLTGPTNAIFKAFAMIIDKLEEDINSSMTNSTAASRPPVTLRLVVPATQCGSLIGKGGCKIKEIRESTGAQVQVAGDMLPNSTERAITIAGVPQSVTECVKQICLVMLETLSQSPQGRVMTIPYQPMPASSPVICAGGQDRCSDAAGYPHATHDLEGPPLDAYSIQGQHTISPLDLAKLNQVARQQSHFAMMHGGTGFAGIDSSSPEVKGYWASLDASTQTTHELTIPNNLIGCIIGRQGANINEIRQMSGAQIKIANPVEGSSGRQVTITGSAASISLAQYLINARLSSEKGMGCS
UniProt P04792: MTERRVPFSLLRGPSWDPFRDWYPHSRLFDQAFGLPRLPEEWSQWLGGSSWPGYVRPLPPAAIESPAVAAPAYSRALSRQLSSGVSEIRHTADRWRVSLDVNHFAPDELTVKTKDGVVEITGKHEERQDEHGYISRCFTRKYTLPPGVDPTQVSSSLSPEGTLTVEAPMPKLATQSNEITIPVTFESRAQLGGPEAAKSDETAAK

Experiments:
[1] = target: poly(C)binding protein 1 (PCBP1), endogenous in human lymphoblastoid cell lines (human (endogenous in patient-derived lymphoblastoid cell lines)) (UniProt Q15365); test: co-IP; patient- and control-derived lymphoblastoid cell lines; pull-down directed against endogenous PCBP1 (antibody, protein G beads with Sepharose 6B), blot for endogenous HSPB1; IgG as negative control; lysis and wash buffer 0.5% Nonidet P-40 in PBS salts; overnight at 4 °C
[2] = target: PCBP1, endogenous in mouse NSC-34 motorneuron-like cells (mouse (endogenous in NSC-34)) (UniProt P60335); test: co-IP; NSC-34 cells stably transduced with HSPB1 wild type and mutants; pull-down directed against endogenous PCBP1, blot for exogenous HSPB1

| binding [1] | binding [2] | Substance |
| --- | --- | --- |
| binds | – | HSPB1-P182L, endogenous in the lymphoblastoid cell line of a dHMN patient (from UniProt P04792 1-205) |
| – | binds | HSPB1-P182L, exogenous, in stably transduced NSC-34 cells (from UniProt P04792 1-205) |
| no binding | – | HSPB1-R127W, endogenous in the lymphoblastoid cell line of a patient (from UniProt P04792 1-205) |
